# Results published in the supplement of paper PMC8728848.
# The other results are listed elsewhere or left out.
# Legend:
# Assay in all cases: glycan array binding signal (z-score within array); higher = stronger binding
# Conditions in all cases: glycan notation: IUPAC condensed, linker removed
# [1] = molecular target: Neu5Ac(a2-3)Gal(b1-4)GlcNAc(b1-3)[Neu5Ac(a2-3)Gal(b1-4)GlcNAc(b1-6)]GalNAc
# How it was run: (§1)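 Glycan array binding is given as a within-array Z-score, which can be read as non-binding when negative. The arrays, 3228 of them, came from the Consortium for Functional Glycomics database and were retained only where the protein sequence was available. Z-scores were averaged across arrays of the same protein sequence at different concentrations or buffers and across linkers.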
# [2] = molecular target: Neu5Ac(a2-3)Gal(b1-4)GlcNAc(b1-6)GalNAc
# How it was run: as §1
# [3] = molecular target: Neu5Ac(a2-3)Gal(b1-4)GlcNAc(b1-6)[Gal(b1-3)]GalNAc
# How it was run: as §1
# [4] = molecular target: Neu5Ac(a2-3)Gal(b1-4)GlcNAc(b1-6)[Neu5Ac(a2-3)Gal(b1-3)]GalNAc
# How it was run: as §1
# [5] = molecular target: Neu5Ac(a2-3)Gal(b1-4)GlcNAc6S
# How it was run: as §1
# [6] = molecular target: Neu5Ac(a2-3)Gal(b1-4)[Fuc(a1-3)]GlcNAc
# How it was run: as §1
# [7] = molecular target: Neu5Ac(a2-3)Gal(b1-4)[Fuc(a1-3)]GlcNAc(b1-2)Man
# How it was run: as §1
# [8] = molecular target: Neu5Ac(a2-3)Gal(b1-4)[Fuc(a1-3)]GlcNAc(b1-3)Gal
# How it was run: as §1
# [9] = molecular target: Neu5Ac(a2-3)Gal(b1-4)[Fuc(a1-3)]GlcNAc(b1-3)Gal(b1-4)GlcNAc
# How it was run: as §1
# [10] = molecular target: Neu5Ac(a2-3)Gal(b1-4)[Fuc(a1-3)]GlcNAc(b1-3)Gal(b1-4)[Fuc(a1-3)]GlcNAc(b1-3)Gal(b1-4)[Fuc(a1-3)]GlcNAc
# How it was run: as §1
# [11] = molecular target: Neu5Ac(a2-3)Gal(b1-4)[Fuc(a1-3)]GlcNAc(b1-3)GalNAc
# How it was run: as §1
# [12] = molecular target: Neu5Ac(a2-3)Gal(b1-4)[Fuc(a1-3)]GlcNAc(b1-6)[Gal(b1-3)]GalNAc
# How it was run: as §1
# [13] = molecular target: Neu5Ac(a2-3)Gal(b1-4)[Fuc(a1-3)]GlcNAc(b1-6)[Neu5Ac(a2-3)Gal(b1-3)]GalNAc
# How it was run: as §1
# [14] = molecular target: Neu5Ac(a2-3)Gal(b1-4)[Fuc(a1-3)]GlcNAc6S
# How it was run: as §1
# [15] = molecular target: Neu5Ac(a2-3)Gal6S(b1-4)GlcNAc
# How it was run: as §1
# [16] = molecular target: Neu5Ac(a2-3)Gal6S(b1-4)[Fuc(a1-3)]GlcNAc
# How it was run: as §1
# Neu5Ac(a2-3)GalNAc = molecular target: Neu5Ac(a2-3)GalNAc
# How it was run: as §1
# [17] = molecular target: Neu5Ac(a2-3)GalNAc(b1-4)GlcNAc
# How it was run: as §1
# [18] = molecular target: Neu5Ac(a2-3)[GalNAc(b1-4)]Gal(b1-4)Glc
# How it was run: as §1
# [19] = molecular target: Neu5Ac(a2-3)[GalNAc(b1-4)]Gal(b1-4)GlcNAc
# How it was run: as §1
# [20] = molecular target: Neu5Ac(a2-3)[GalNAc(b1-4)]Gal(b1-4)GlcNAc(b1-3)GalNAc
# How it was run: as §1
# [21] = molecular target: Neu5Ac(a2-3)[Neu5Ac(a2-6)]GalNAc
# How it was run: as §1
# Neu5Ac(a2-6)Gal = molecular target: Neu5Ac(a2-6)Gal
# How it was run: as §1
# [22] = molecular target: Neu5Ac(a2-6)Gal(b1-3)GlcNAc(b1-3)[Gal(b1-4)GlcNAc(b1-6)]Gal(b1-4)Glc
# How it was run: as §1
# Neu5Ac(a2-6)Gal(b1-4)Glc = molecular target: Neu5Ac(a2-6)Gal(b1-4)Glc
# How it was run: as §1
# [23] = molecular target: Neu5Ac(a2-6)Gal(b1-4)GlcNAc
# How it was run: as §1
# [24] = molecular target: Neu5Ac(a2-6)Gal(b1-4)GlcNAc(b1-2)Man
# How it was run: as §1
# [25] = molecular target: Neu5Ac(a2-6)Gal(b1-4)GlcNAc(b1-2)Man(a1-3)Man(b1-4)GlcNAc(b1-4)GlcNAc
# How it was run: as §1
# [26] = molecular target: Neu5Ac(a2-6)Gal(b1-4)GlcNAc(b1-2)Man(a1-3)[Gal(b1-4)GlcNAc(b1-2)Man(a1-6)]Man(b1-4)GlcNAc(b1-4)GlcNAc
# How it was run: as §1
# [27] = molecular target: Neu5Ac(a2-6)Gal(b1-4)GlcNAc(b1-2)Man(a1-3)[GlcNAc(b1-2)Man(a1-6)]Man(b1-4)GlcNAc(b1-4)GlcNAc
# How it was run: as §1
# [28] = molecular target: Neu5Ac(a2-6)Gal(b1-4)GlcNAc(b1-2)Man(a1-3)[GlcNAc(b1-4)][Neu5Ac(a2-6)Gal(b1-4)GlcNAc(b1-2)Man(a1-6)]Man(b1-4)GlcNAc(b1-4)GlcNAc
# How it was run: as §1
# [29] = molecular target: Neu5Ac(a2-6)Gal(b1-4)GlcNAc(b1-2)Man(a1-3)[Man(a1-6)]Man(b1-4)GlcNAc(b1-4)GlcNAc
# How it was run: as §1
# [30] = molecular target: Neu5Ac(a2-6)Gal(b1-4)GlcNAc(b1-2)Man(a1-3)[Neu5Ac(a2-3)Gal(b1-4)GlcNAc(b1-2)Man(a1-6)]Man(b1-4)GlcNAc(b1-4)GlcNAc
# How it was run: as §1
# [31] = molecular target: Neu5Ac(a2-6)Gal(b1-4)GlcNAc(b1-2)Man(a1-3)[Neu5Ac(a2-6)Gal(b1-4)GlcNAc(b1-2)Man(a1-6)]Man(b1-4)GlcNAc(b1-4)GlcNAc
# How it was run: as §1
# [32] = molecular target: Neu5Ac(a2-6)Gal(b1-4)GlcNAc(b1-2)Man(a1-3)[Neu5Ac(a2-6)Gal(b1-4)GlcNAc(b1-2)Man(a1-6)]Man(b1-4)GlcNAc(b1-4)[Fuc(a1-6)]GlcNAc
# How it was run: as §1
# [33] = molecular target: Neu5Ac(a2-6)Gal(b1-4)GlcNAc(b1-2)Man(a1-6)Man(b1-4)GlcNAc(b1-4)GlcNAc
# How it was run: as §1
# [34] = molecular target: Neu5Ac(a2-6)Gal(b1-4)GlcNAc(b1-2)Man(a1-6)[Gal(b1-4)GlcNAc(b1-2)Man(a1-3)]Man(b1-4)GlcNAc(b1-4)GlcNAc
# How it was run: as §1
# [35] = molecular target: Neu5Ac(a2-6)Gal(b1-4)GlcNAc(b1-2)Man(a1-6)[GlcNAc(b1-2)Man(a1-3)]Man(b1-4)GlcNAc(b1-4)GlcNAc
# How it was run: as §1
# [36] = molecular target: Neu5Ac(a2-6)Gal(b1-4)GlcNAc(b1-2)Man(a1-6)[Man(a1-3)]Man(b1-4)GlcNAc(b1-4)GlcNAc
# How it was run: as §1
# [37] = molecular target: Neu5Ac(a2-6)Gal(b1-4)GlcNAc(b1-2)[Neu5Ac(a2-6)Gal(b1-4)GlcNAc(b1-4)]Man(a1-3)[GlcNAc(b1-4)][Neu5Ac(a2-6)Gal(b1-4)GlcNAc(b1-2)[Neu5Ac(a2-6)Gal(b1-4)GlcNAc(b1-6)]Man(a1-6)]Man(b1-4)GlcNAc(b1-4)GlcNAc
# How it was run: as §1
# [38] = molecular target: Neu5Ac(a2-6)Gal(b1-4)GlcNAc(b1-2)[Neu5Ac(a2-6)Gal(b1-4)GlcNAc(b1-4)]Man(a1-3)[GlcNAc(b1-4)][Neu5Ac(a2-6)Gal(b1-4)GlcNAc(b1-4)Man(a1-6)]Man(b1-4)GlcNAc(b1-4)GlcNAc
# How it was run: as §1
# [39] = molecular target: Neu5Ac(a2-6)Gal(b1-4)GlcNAc(b1-2)[Neu5Ac(a2-6)Gal(b1-4)GlcNAc(b1-6)]Man(a1-6)[Neu5Ac(a2-6)Gal(b1-4)GlcNAc(b1-2)Man(a1-3)][GlcNAc(b1-4)]Man(b1-4)GlcNAc(b1-4)GlcNAc
# How it was run: as §1
# [40] = molecular target: Neu5Ac(a2-6)Gal(b1-4)GlcNAc(b1-3)Gal(b1-3)GlcNAc
# How it was run: as §1
# [41] = molecular target: Neu5Ac(a2-6)Gal(b1-4)GlcNAc(b1-3)Gal(b1-4)GlcNAc
# How it was run: as §1
# [42] = molecular target: Neu5Ac(a2-6)Gal(b1-4)GlcNAc(b1-3)Gal(b1-4)GlcNAc(b1-2)Man(a1-3)[Neu5Ac(a2-6)Gal(b1-4)GlcNAc(b1-3)Gal(b1-4)GlcNAc(b1-2)Man(a1-6)]GalNAc
# How it was run: as §1
# [43] = molecular target: Neu5Ac(a2-6)Gal(b1-4)GlcNAc(b1-3)Gal(b1-4)GlcNAc(b1-3)Gal(b1-4)GlcNAc
# How it was run: as §1
binder,measurement,setting,value
Epa2 (Candida glabrata) (protein) MGSSHHHHHHSSGLVPRGSHMASSKDPTSFPMGCSPQVLKTQPGLAVKLYSYGHPVPGCAYNTYQYPDFPRSGYKKERKLADITGVNGRIDIDLKPNDPCRVLSGNLPSNYNYQNTLTYTNFTMILYGYFQPKVTGYHTFNLEADDLLFMNLGAGNAFDCCRAESTLDNFGNYQSYSIWGTDKATADLTVFLVSGIYYPIRLFYVNRDNNAVLDFSFSTEFNKEIIHDFTSYFFSASDEEQCPGNI,glycan array binding signal (z-score),[1],3.03
same,glycan array binding signal (z-score),[2],-0.308
same,glycan array binding signal (z-score),[3],0.628
same,glycan array binding signal (z-score),[4],-1.19
same,glycan array binding signal (z-score),[5],-0.184
same,glycan array binding signal (z-score),[6],-0.21
same,glycan array binding signal (z-score),[7],-0.325
same,glycan array binding signal (z-score),[8],-0.875
same,glycan array binding signal (z-score),[9],0.49
same,glycan array binding signal (z-score),[10],-0.083
same,glycan array binding signal (z-score),[11],1.05
same,glycan array binding signal (z-score),[12],0.956
same,glycan array binding signal (z-score),[13],0.699
same,glycan array binding signal (z-score),[14],-0.281
same,glycan array binding signal (z-score),[15],-0.412
same,glycan array binding signal (z-score),[16],-0.905
same,glycan array binding signal (z-score),Neu5Ac(a2-3)GalNAc,-0.09
same,glycan array binding signal (z-score),[17],-0.275
same,glycan array binding signal (z-score),[18],-0.476
same,glycan array binding signal (z-score),[19],-0.651
same,glycan array binding signal (z-score),[20],0.939
same,glycan array binding signal (z-score),[21],0.098
same,glycan array binding signal (z-score),Neu5Ac(a2-6)Gal,0.28
same,glycan array binding signal (z-score),[22],-0.53
same,glycan array binding signal (z-score),Neu5Ac(a2-6)Gal(b1-4)Glc,-0.322
same,glycan array binding signal (z-score),[23],-0.329
same,glycan array binding signal (z-score),[24],-0.313
same,glycan array binding signal (z-score),[25],0.572
same,glycan array binding signal (z-score),[26],-0.418
same,glycan array binding signal (z-score),[27],-0.681
same,glycan array binding signal (z-score),[28],-0.794
same,glycan array binding signal (z-score),[29],-0.137
same,glycan array binding signal (z-score),[30],-0.821
same,glycan array binding signal (z-score),[31],0.254
same,glycan array binding signal (z-score),[32],-0.149
same,glycan array binding signal (z-score),[33],-0.441
same,glycan array binding signal (z-score),[34],-0.658
same,glycan array binding signal (z-score),[35],0.411
same,glycan array binding signal (z-score),[36],-0.983
same,glycan array binding signal (z-score),[37],-0.734
same,glycan array binding signal (z-score),[38],0.181
same,glycan array binding signal (z-score),[39],-0.44
same,glycan array binding signal (z-score),[40],-0.15
same,glycan array binding signal (z-score),[41],-0.467
same,glycan array binding signal (z-score),[42],0.897
same,glycan array binding signal (z-score),[43],0.69

# Given tab-delimited: entries from further up
binder	measurement	setting	value
Epa2 (Candida glabrata) (protein) MGSSHHHHHHSSGLVPRGSHMASSKDPTSFPMGCSPQVLKTQPGLAVKLYSYGHPVPGCAYNTYQYPDFPRSGYKKERKLADITGVNGRIDIDLKPNDPCRVLSGNLPSNYNYQNTLTYTNFTMILYGYFQPKVTGYHTFNLEADDLLFMNLGAGNAFDCCRAESTLDNFGNYQSYSIWGTDKATADLTVFLVSGIYYPIRLFYVNRDNNAVLDFSFSTEFNKEIIHDFTSYFFSASDEEQCPGNI	glycan array binding signal (z-score)	[32]	-0.149
same	glycan array binding signal (z-score)	[33]	-0.441
same	glycan array binding signal (z-score)	[34]	-0.658
same	glycan array binding signal (z-score)	[35]	0.411
same	glycan array binding signal (z-score)	[36]	-0.983
same	glycan array binding signal (z-score)	[37]	-0.734
same	glycan array binding signal (z-score)	[38]	0.181
same	glycan array binding signal (z-score)	[39]	-0.44
same	glycan array binding signal (z-score)	[40]	-0.15
